# Results taken from PubChem BioAssay AID2003 (Broad Institute, 2009).
# This is one part of the list. Potency and affinity values are given separately. The source made no clear call on entries shown without one.
# Experiment: PubChem AID 2003
# Conditions: H4 cells, SNCA 5'UTR luciferase reporter, luminescence; at 12 µM (top of the series) unless noted
row,SMILES,activation
1,Nc1c(C(=O)Nc2ccccc2Cl)nnn1-c1ccc2c(c1)OCCO2,16.2%
2,O=C(Nc1ccccc1)c1cc2n(n1)C(C(F)(F)F)CC(C1CC1)N2 (centres undefined),84.3%
3,Cc1cc(C)c(NN=c2c(=O)c3ccccc3c2=O)c(C)c1,22.5%
4,Cc1ccc(/C=N/n2cc(-c3ccccc3)[nH]c2=S)s1,41.3%
5,Cc1nc2nc(-c3ccc(Cl)cc3)nn2c(C)c1Cl,54.7%
6,O=C(Nc1ccccc1)OCCOc1ccccc1,65.5%
7,Cc1cc2c([nH]c3ccccc32)c2c1OC(C)(C)C=C2,75%
8,COc1ccc(/C=N/N=C2/SCC(=O)N2Cc2ccccc2)cc1,58.8%
9,O=C(Nc1ccc(N2CCOCC2)c(Cl)c1)c1ccc(Br)o1,100%
10,Cc1ccc(NC(=O)Nc2ccc3oc(C)nc3c2)cc1,47.5%
11,Cc1nc2c3cnn(-c4ccc(C)c(C)c4)c3ncn2n1,101%
12,Cc1cccc(NC(=O)Nc2ccc3c(c2)OCO3)n1,109%
13,Cc1ccc(-n2c(C)cc(/C=C3\SC(=O)NC3=O)c2C)cc1,116%
14,CC(=O)Nc1ccc2c(c1)ncn2-c1ccccc1,44.7%
15,O=C(Nc1cccc(Cn2cccn2)c1)c1cc2c(s1)CCCC2,41.7%
16,N#C/C(=C\c1ccc(N2CCCCC2)o1)C(=O)Nc1cccc(Br)c1,133%
17,Nc1ccccc1C(=O)NNC1=C(C(=O)C(F)(F)F)CCC1,51.6%
18,COc1ccc(C2=NC(c3ccccc3)CO2)cc1 (centres undefined),64.8%
19,O=C(OCc1ccccc1)c1ccc2c(c1)-c1ccccc1C2=O,48.6%
20,c1ccc(N2CCN(c3nc4cc5c(cc4s3)OCO5)CC2)cc1,63.1%
21,COc1ccc(NC(C)=O)cc1S(=O)(=O)Nc1ccccc1C(=O)NCCc1ccccc1,15.9%
22,COc1cccc(-c2nc3sc4c(c3c(=O)[nH]2)CCCCC4)c1,76.2%
23,COc1ccccc1-c1cnn2c(NC3CCCC3)cc(C)nc12,77%
24,COc1ccc(S(=O)(=O)N2CCCC(C(=O)Nc3ccc(NC(=O)c4ccccn4)cc3)C2)cc1 (centres undefined),48.2%

row,SMILES,activation
1,Cc1cc(C)[n+]2n1C(=O)C(c1ccccc1)=C2[O-],34%
2,O=C(NC1CCCCCCC1)NC1CCCCC1,54.3%
3,CCOc1ccccc1N/C=C(\C#N)c1nc2ccccc2n1C,33.1%
4,Cc1c(C(=O)Nc2ccccn2)oc2ccccc12,71.1%
5,COc1cccc(COC(=O)Nc2ccccc2F)c1,40%
6,O=C(CNC(=O)c1ccc(F)cc1)c1ccc(Cl)cc1,47.1%
7,Cc1ccc(N=Cc2c(O)[nH]c3ccccc23)c([N+](=O)[O-])c1,47.9%
8,Cc1cc(C(=O)NC2CCCc3c2cnn3-c2cccc(C)c2C)no1 (centres undefined),-22.5%
9,O=C(NCCCN1CCCC1=O)C(=O)Nc1cccc(F)c1,58.2%
10,COc1ccc(-c2cc(C(=O)Nc3cccc(Cl)c3)no2)cc1,54.9%
11,Cc1c(C)c2ccc(OCC(=O)Nc3cccnc3)c(C)c2oc1=O,53%
12,COc1ccc2cc(-c3csc(-c4cccnc4)n3)ccc2c1,63.4%
13,Oc1c(C2=NCCNC(C(F)(F)F)=C2)ccc2ccccc12,89.6%
14,Cc1cc(/C=C(\C#N)C(=O)NCc2cccs2)c(C)n1-c1ccccc1F,58.6%
15,COc1ccccc1-c1nc(-c2ccc(Br)cc2)no1,72.8%
16,COc1ccc(C2Nc3ccccc3C(=O)N2c2ccc(C)cc2)cc1Cn1nnc2ccccc21 (centres undefined),56.9%
17,O=C(Nc1cccc(Cl)c1)c1ccc2c(=O)n3c(nc2c1)CCCCC3,115%
18,CC(C)c1ccc(/C=N/NC(=O)c2cccc(Cl)c2)cc1,42%
19,CC(Oc1ccccc1)C(=O)NC1=NCCS1 (centres undefined),80%
20,CCc1nnc(NC(=O)CSc2nc3c(cc2C#N)CCC3)s1,-10.9%
21,CC(C)c1ccc(NC(=O)NC2CCCCC2)cc1,51.3%
22,Cc1ccc(N(CC(=O)Nc2ccc(-c3nc4ccc(C)cc4s3)cc2)S(C)(=O)=O)cc1,81.5%
23,Cc1nc2cc(NC(=O)CCS(=O)(=O)c3ccccc3)ccc2s1,49.7%
24,O=c1sc(N2CCN(c3ccccc3F)CC2)nc2ccsc12,143%

row,SMILES,activation
1,O=C(NC1CC1)c1cccc(Nc2ccc(-c3ccc4c(c3)OCCO4)nn2)c1,53%
2,Cc1nc2c(-c3ccccc3)cnn2c(N2CCOCC2)c1C,74.5%
3,O=C(COc1cccc2cccnc12)Nc1ccccc1,46.9%
4,CCCc1ccc2oc(C(=O)N3CCC[C@H]3CO)c(C)c2c1,72.2%
5,O=C(N/N=C/c1ccc2nccnc2c1)c1ccccc1O,42.7%
6,CCCCOc1ncnc2c1[nH]c1ccc(OC)cc12,12.7%
7,CCOC(=O)CSc1nc(-c2ccc3c(c2)OCO3)ccc1C#N,45.9%
8,Cc1ccc(OCc2nc(-c3ccccc3)no2)c(C)c1,90.5%
9,Cc1ccccc1/C=C/c1nc2ccccc2c(=O)[nH]1,28.4%
10,Nc1c(-c2cccs2)cnn1-c1nc(-c2ccc(F)cc2)cs1,134% [at 6 µM]
11,O=C(CSc1cn(Cc2ccccc2)c2ccccc12)Nc1nccs1,64.2%
12,Cc1cccc(COc2ccc(/C=N/NC(=O)c3nnn(-c4nonc4N)c3COc3ccc(F)cc3)cc2)c1,29.7%
13,c1ccc2c(c1)oc1c(Nc3ccc(CN4CCOCC4)cc3)ncnc12,34.4%
14,CCSc1nnc2c(n1)[nH]c1c(C)cccc12,93.8%
15,COc1ccc(-c2cc(C(=O)N3CCN(c4ccccn4)CC3)c3ccccc3n2)cc1,32.1%
16,N/C(=N\OC(=O)c1ccco1)c1ccccc1,54.3%
17,O=C(N/N=C\c1cccc(Cl)c1)c1n[nH]c2c1CCCC2,82.2%
18,CCOc1ccc(NC(c2ccccn2)c2oc(CO)cc(=O)c2O)cc1 (centres undefined),61.1%
19,Cc1ccc(-c2c(C)sc(=NC(=O)c3ccco3)n2C)cc1,27%
20,CC(C)(C)c1cc(NC(=O)Nc2ccccc2)no1,80.4%
21,Cc1ccc(Sc2cnc3ccccc3n2)cc1,69.8%
22,COc1ccc(Cn2c(-c3ccc(Cl)cc3)c[n+]3ccccc23)cc1,87.2%
23,O=C(NC1CCCC1)c1cc2c(ccc3ccccc32)o1,124%
24,O=C(O)c1ccc(N/N=C/c2ccc(-c3cc(Cl)ccc3Cl)o2)cc1,69.2%

row,SMILES,activation
1,CCCC(=O)Nc1sc2c(c1C#N)CCCCC2,52.9%
2,COc1ccc(-c2nnn(Cc3ccccc3F)n2)cc1,87.3%
3,Cc1ccccc1-n1c(C)nnc1SCc1nc2ccccc2s1,84.4%
4,Cc1ccsc1C1NC(=O)c2c(sc3c2CCCC3)N1 (centres undefined),68.7%
5,O=C(Nc1ccc(-c2cn3ccccc3n2)cc1)c1ccco1,180% [at 6 µM]
6,C=C1CCC2[C@](C)(CO)[C@H](O)CC[C@@]2(C)[C@@H]1C/C=C1\C(=O)OC[C@H]1O (some centres undefined),4.9%
7,O=C1N=C(N2CCOCC2)S/C1=C1\C(=O)N(Cc2ccccc2)c2ccccc21,88.2%
8,O=C(COc1ccccc1Cl)c1ccc2c(c1)CCCC2,76.1%
9,CNc1nc(-c2ccc3c(c2)CCN3C(=O)c2cccc(F)c2)cs1,100% [at 6 µM]
10,Oc1[nH]c2ccccc2c1C=Nc1ccc2c(c1)OCO2,107%
11,Cc1cccc(-c2cc3nc4c(c(N5CCOCC5)n3n2)CCCC4)c1,52.6%
12,CN(C)c1ccc(/C=N/n2ncc3ccccc32)cc1,-49.7%
13,COc1ccc(C(=O)N=c2sc3c(C)ccc(OC)c3n2C)cc1OC,133%
14,O=C(Nc1ccc(-c2cn3ccsc3n2)cc1)C1CC1,83.1%
15,O=C(NCCSc1ccccc1)c1ccco1,68.2%
16,N#C/C(=C\c1ccc(Sc2ccccc2)o1)c1nc2ccccc2[nH]1,90.5%
17,CCOC(=O)c1cnc(SCc2ccccc2)nc1N,7%
18,Cc1nc(NC(=O)C2CC2)sc1C(=O)Nc1ccccc1Cl,63.8%
19,Nc1c(C(=O)c2ccccc2)oc2ccc(Br)cc12,63.3%
20,Cc1cccc(-c2nsc(SCC(=O)N3CCCC3)n2)c1,38.5%
21,O=C(c1ccccc1)c1cc2cc(Cl)ccc2[nH]1,98.4%
22,CCN(CC)c1ccc(/C=N/N2CCOCC2)c(O)c1,61.8%
23,CCn1c(C)cc(/C=C2/NC(=O)N(c3ccccc3)C2=O)c1C,67.8%
24,CN1CCN(c2ccc(-c3ccnn3C(=O)Nc3cccc(C(F)(F)F)c3)cc2)CC1,34.7%

# Gathered by group: the compounds so far containing a cyano group (seven)
row,SMILES,activation
16,N#C/C(=C\c1ccc(N2CCCCC2)o1)C(=O)Nc1cccc(Br)c1,133%
3,CCOc1ccccc1N/C=C(\C#N)c1nc2ccccc2n1C,33.1%
14,Cc1cc(/C=C(\C#N)C(=O)NCc2cccs2)c(C)n1-c1ccccc1F,58.6%
20,CCc1nnc(NC(=O)CSc2nc3c(cc2C#N)CCC3)s1,-10.9%
7,CCOC(=O)CSc1nc(-c2ccc3c(c2)OCO3)ccc1C#N,45.9%
1,CCCC(=O)Nc1sc2c(c1C#N)CCCCC2,52.9%
16,N#C/C(=C\c1ccc(Sc2ccccc2)o1)c1nc2ccccc2[nH]1,90.5%

# Remaining list, next part:

row,SMILES,activation
1,O=C(/C=C/c1ccc2c(c1)OCO2)Nc1nncs1,36.6%
2,Fc1cccc(CSc2ccc(-c3ccco3)nn2)c1,56.4%
3,Cc1nc(NC(=O)c2cccs2)ccc1Br,144%
4,Nc1nnc(CC(=O)N/N=C/c2cccc(OCCOc3ccccc3)c2)s1,26.9%
5,O=C(N=c1nc2ccccn2s1)c1ccccc1,79.3%
6,CC(/C=N/Nc1ccc2nncn2n1)=C\c1ccccc1,50.4%
7,COc1cccc(C=O)c1OCCCOc1cccc2cccnc12,69.2%
8,CSc1ccc(CNC(=O)Cc2ccc(NC(=O)C3=C(C)OCCS3)cc2)cc1,20.6%
9,Cc1cc(NC(=O)c2noc3c2CCCCC3)no1,66%
10,CCc1ccc(OCc2ccc(C(=O)OC)o2)cc1,49.8% [at 6 µM]
11,CCN(CC)c1ccc(C2Nc3cccc4cccc(c34)N2)cc1,246%
12,Cc1cc(C(=O)CSc2nnnn2C)c(C)n1Cc1ccco1,27.3%
13,[O-][n+]1onc2c1CCc1c-2nn(-c2ccccc2Cl)[n+]1[O-],69%
14,Clc1ccc(-c2nsc(N3CCOCC3)n2)c(Cl)c1,-22.7%
15,CCOC(=O)C1CCN(c2ccc(-c3cccs3)nn2)CC1,60.6%
16,CC(C)(C)c1ccc(OCc2nc(-c3ccccn3)no2)c(Br)c1,158% [at 6 µM]
17,CC(=O)c1ccc(NC(=S)NCCc2cccc(Cl)c2)cc1,144%
18,Cn1cccc1/C=C1\CCC/C(=C\c2cccn2C)C1=O,47.4%
19,COc1c(C)cccc1C(=O)Nc1ccc(N2CCOCC2)c(Cl)c1,79%
20,Cc1cc2oc3cc(NCCC4CCCN4C)ccc3c(=O)c2cc1C (centres undefined),94%
21,N/C(=N\N=C\c1ccc(O)cc1)c1nonc1N,89.6%
22,O=C(/C=C/c1ccccc1Cl)NCCc1ccccc1,28.8%
23,Cc1ccc(N=Nc2c(C)[nH]n(C(N)=S)c2=O)cc1C,196%
